Assay results: article PMC4450086
Results are given in words; binding and its absence hold for the method and conditions named. In cells and extracts the contact can be indirect. Some results given as binding are weak or reduced against the parent protein; the word gives no strength.

Chains of the proteins cited; added tags and fusions are not shown. Residues count along the entry.
UniProt P16056, residues 25-1379: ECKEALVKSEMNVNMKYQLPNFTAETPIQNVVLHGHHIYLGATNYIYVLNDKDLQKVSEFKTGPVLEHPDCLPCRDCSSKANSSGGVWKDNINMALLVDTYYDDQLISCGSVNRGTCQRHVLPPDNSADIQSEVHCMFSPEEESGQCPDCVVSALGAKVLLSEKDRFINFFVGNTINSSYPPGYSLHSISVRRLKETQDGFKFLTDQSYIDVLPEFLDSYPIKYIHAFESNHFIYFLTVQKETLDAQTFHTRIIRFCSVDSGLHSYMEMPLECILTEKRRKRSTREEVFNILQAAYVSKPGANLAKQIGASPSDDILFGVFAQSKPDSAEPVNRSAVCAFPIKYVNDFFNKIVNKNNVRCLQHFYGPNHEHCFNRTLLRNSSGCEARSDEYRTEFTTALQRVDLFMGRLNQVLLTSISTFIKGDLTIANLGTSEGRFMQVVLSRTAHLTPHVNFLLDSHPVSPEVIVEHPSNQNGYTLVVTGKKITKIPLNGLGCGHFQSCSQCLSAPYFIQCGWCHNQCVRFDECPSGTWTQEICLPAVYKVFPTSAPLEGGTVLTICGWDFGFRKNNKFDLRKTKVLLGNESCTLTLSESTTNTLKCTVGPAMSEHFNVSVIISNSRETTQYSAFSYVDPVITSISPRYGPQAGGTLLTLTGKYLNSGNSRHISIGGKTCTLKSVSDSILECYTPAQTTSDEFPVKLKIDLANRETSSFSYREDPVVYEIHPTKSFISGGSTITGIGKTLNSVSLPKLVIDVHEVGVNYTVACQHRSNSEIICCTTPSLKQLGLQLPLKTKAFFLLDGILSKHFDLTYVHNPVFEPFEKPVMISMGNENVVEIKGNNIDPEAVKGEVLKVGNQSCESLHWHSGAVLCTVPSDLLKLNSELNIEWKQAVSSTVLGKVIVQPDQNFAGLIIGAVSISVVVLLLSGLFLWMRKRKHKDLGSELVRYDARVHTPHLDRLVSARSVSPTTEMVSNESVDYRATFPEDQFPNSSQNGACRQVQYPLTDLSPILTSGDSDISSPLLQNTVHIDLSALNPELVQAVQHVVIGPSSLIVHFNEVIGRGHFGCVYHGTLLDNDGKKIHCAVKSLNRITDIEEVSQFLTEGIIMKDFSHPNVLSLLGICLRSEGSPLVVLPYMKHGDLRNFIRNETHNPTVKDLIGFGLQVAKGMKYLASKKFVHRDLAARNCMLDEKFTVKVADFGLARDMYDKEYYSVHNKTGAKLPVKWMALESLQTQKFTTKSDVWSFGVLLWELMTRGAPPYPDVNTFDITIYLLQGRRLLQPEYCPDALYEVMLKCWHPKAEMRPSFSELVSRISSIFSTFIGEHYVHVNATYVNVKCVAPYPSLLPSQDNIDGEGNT

Molecular target: tyrosine kinase c-Met receptor (mouse) (mouse (endogenous in mFGOs)) (UniProt P16056)
Experiment: co-IP; lysates (M-PER) of mFGOs infected with H. pylori G27 for 24 h; anti-c-Met antibody 1:50 overnight at 4 C, Protein A/G Plus agarose; Western blot for TyrP, c-Met, CagA, CD44 and HGF

- binding: binds
B1: CD44 (mouse) (receptor, UniProt P15379 23-778)
chain: QIDLNVTCRYAGVFHVEKNGRYSISRTEAADLCQAFNSTLPTMDQMKLALSKGFETCRYGFIEGNVVIPRIHPNAICAANHTGVYILVTSNTSHYDTYCFNASAPPEEDCTSVTDLPNSFDGPVTITIVNRDGTRYSKKGEYRTHQEDIDASNIIDDDVSSGSTIEKSTPEGYILHTYLPTEQPTGDQDDSFFIRSTLATIASTVHSKSHAAAQKQNNWIWSWFGNSQSTTQTQEPTTSATTALMTTPETPPKRQEAQNWFSWLFQPSESKSHLHTTTKMPGTESNTNPTGWEPNEENEDETDTYPSFSGSGIDDDEDFISSTIATTPRVSARTEDNQDWTQWKPNHSNPEVLLQTTTRMADIDRISTSAHGENWTPEPQPPFNNHEYQDEEETPHATSTTPNSTAEAAATQQETWFQNGWQGKNPPTPSEDSHVTEGTTASAHNNHPSQRITTQSQEDVSWTDFFDPISHPMGQGHQTESKDTDSSHSTTLQPTAAPNTHLVEDLNRTGPLSVTTPQSHSQNFSTLHGEPEEDENYPTTSILPSSTKSSAKDARRGGSLPTDTTTSVEGYTFQYPDTMENGTLFPVTPAKTEVFGETEVTLATDSNVNVDGSLPGDRDSSKDSRGSSRTVTHGSELAGHSSANQDSGVTTTSGPMRRPQIPEWLIILASLLALALILAVCIAVNSRRRCGQKKKLVINGGNGTVEDRKPSELNGEASKSQEMVHLVNKEPSETPDQCMTADETRNLQSVDMKIGV
